Measured values taken from PMC10163288.
This is one part of the list.

B1: il2ra_site1_3nfp_normal_mot_HHH_b1_08527_000000299_0001_1_18_H_._HHH_b1_00781_0001_0000300028_0000001_1 (protein)
chain: SSSSDKEELLQEFQKIAFELSRLGDTQAFRLVAELAEEADKEGDPRYLEEAEEILEEVRRSSSSS
B2: il2ra_site2_3nfp_normal_mot_HHH_b2_05281_000000198_0001_39_56_H_._HHH_b2_04257_0001_0000800084_0000001_0 (protein)
chain: SSSSDKEERIEKLIEEAEKALEEGNPEEAQRILAEATRLAFESNNPRLFFRIAELAYKVYSSSSS
B3: il2ra_site1_2b5i_normal_mot_a7d4ab743ae57deeac5d741f7278d18b_0001_af2_000000162_0001_36_49_H_._HHH_b1_06005_af2_0001_0000100005_0000001_0 (protein)
chain: SSSSDDSEIALELAERHLKEARERGDEILLENVFRLARKDLERLGDPEAVEELEEFLERLSSSSS
B4: il2ra_site2_2erj_normal_mot_HHH_b2_00494_000000216_0001_41_54_H_._HHH_b1_07293_af2_0001_0000800113_0000001_0 (protein)
chain: SSSSNEDLKRAYELAVRILELIHRGDEEEAKELLEELERLAEKFNSENLREIIRFLEQQLSSSSS
B5: il2ra_site1_3nfp_sap_17_mot_HHH_b2_05178_af2_000000174_0001_1_19_H_._HHH_b2_00929_af2_0001_0000100002_0000001_1_0001_af2pred_0001_af2pred_1 (protein)
chain: SSSSSDEHRQALRISREIRELLKEGDPEEVEELLKELEELAKKVNDEAAKILVERLKKKLESSSS
B6: il2ra_site2_2erj_sap_27_mot_HHH_b1_08185_000000063_0001_41_55_H_._HHH_b1_03158_0001_0000300009_0000001_0_0001_af2pred_0001_af2pred (protein)
chain: SSSDALERAREVLKEVLELLRKGNDEEAKKLLEEAREILEELGDKTALRLIEQALRLLEKLSSSS
B7: il2ra_site1_2b5i_sap_13_mot_HHH_b2_08121_af2_000000082_0001_40_52_H_._HHH_b2_04656_0002_0000400019_0000001_0_0001_af2pred_dldesign_0_af2pred (protein)
chain: SSSSSDVYAEVERLFKEAQKLWREGKKEEAKKVLEEALKLAKAANDTKIVAELERFLKLLSSSSS
B8: il2ra_site1_3nfp_normal_mot_HHH_b1_02869_af2_000000018_0001_41_55_H_._HEEHE_2123_0001_0000100006_0000001_0 (protein)
chain: EEELDVRHLARALARAARVPKVEIEIENNRVTVTVEGDDEAARRALEAAEQFWRLLGYEVELEIE
B9: il2ra_site1_3nfp_sap_22_mot_1d0af4279e6cd48282cc3e51f763a6be_0001_000000077_0001_33_47_H_._HHH_b2_02973_0001_0000500016_0000001_0_0001 (protein)
chain: SSSSSNSAERLERLLREAWRAAKEGDPEEAKKILEEALELAEEAGNKSAARSIRIALEMLSSSSS
B10: il2ra_site1_1z92_normal_mot_HHH_b2_07822_af2_000000141_0001_42_54_H_._HHH_b1_04440_0001_0000300014_0000001_0 (protein)
chain: SSSSSTDELIEERFEFAAENFKLSDDEHALRWALELLKALAKLLNDPELERRVKELEEEISSSSS
B11: il2ra_site2_3nfp_normal_mot_HHH_b2_07840_000000026_0001_18_34_H_._HHH_b2_03668_0001_0000300078_0000001_0 (protein)
chain: SSSSDEERLEELLEKVHELIKEGDEEEAKKLLEEATQIAYERRDHEAFAIITDLLALLAQASSSS
B12: il2ra_site1_1z92_normal_mot_HHH_b2_06170_af2_000000251_0001_1_19_H_._HEEHE_2247_0001_0000200017_0000001_0 (protein)
chain: DLRRELIELAKELSKELGVDAVLVVVQNGTVQVLVHADNEEAEKLLRTLEEYAEELGLEVRLRIR
B13: il2ra_site1_1z92_normal_mot_HHH_b2_05172_af2_000000284_0001_1_18_H_._HHH_b1_06259_0001_0000100001_0000001_0_af2pred_0001_af2pred (protein)
chain: SSSSDEEERLALEIVIRLAREFKLDLEQIKILTEVALELLERGLSEEEIEEILEEVAERLSSSSS
B14: il2ra_site2_3nfp_normal_mot_HHH_b1_01086_000000225_0001_20_36_H_._HHH_b1_00346_af2_0001_0000400008_0000001_0 (protein)
chain: SSSSDEEENEELLEELRRLIEEGDEERARKLAEEASNLLYENNDFEAFAKLADLVFLIKQLSSSS
B15: il2ra_site2_2erj_sap_25_mot_HHH_b1_02841_000000060_0001_43_57_H_._HHH_b1_02445_af2_0001_0000300014_0000001_0_0001 (protein)
chain: SSSSDTEERVEEVLEEARKAYEEGDLHEVYRLAVEAMRIASENNDQEALELVLRFIEELSSSSSS
B16: il2ra_site2_2erj_normal_mot_HHH_b1_04103_000000259_0001_21_37_H_._HHH_b2_01479_af2_0001_0000100001_0000001_0_1_af2pred_0001_1_af2pred_swapped (protein)
chain: SSSSDDRVIEAAALAIELAFRLLERGDEETAKELMELFQELARHGDPELAEELREFIEEFSSSSS
B17: il2ra_site2_2erj_sap_23_mot_HHH_b2_01204_af2_000000051_0001_19_34_H_._HHH_b2_01135_0001_0000300045_0000001_0_0001 (protein)
chain: SEEVLIKRFIEVQARDAGVPHVEVEIENGTFSVTVEGDDEAAKQVLEAARMVAEVLGVPIEVEIE
B18: il2ra_site1_3nfp_sap_10_mot_HHH_b1_01159_af2_000000107_0001_1_20_H_._HHH_b1_00500_0001_0000300009_0000001_0_0001_af2pred_0001_af2pred_1_swapped (protein)
chain: SSSSDFERLRELIEEAQKLLKEGNPEEAREVLEEAREIAEKLGDKIAREWVERLLELAERRSSSS
B19: il2ra_site1_3nfp_normal_mot_HHH_b1_07644_af2_000000110_0001_40_57_H_._HHH_b1_04414_0001_0000200010_0000001_0 (protein)
chain: SSSSDQELAKLADEIWELIREGDIEEARRVLEEAERLAEELGDEIAKRLLRQLQEALERRSSSSS
B20: il2ra_site2_2erj_normal_mot_c2bf78bdce995293a161f7082e24b401_0001_af2_000000082_0001_17_32_H_._HHH_b2_05903_af2_0001_0000100003_0000001_0 (protein)
chain: SSSSNEELKELYELANELMHAIARGDEELVEEIFEKIEELAKKLDSENARELAESLLRLQNSSSS
B21: il2ra_site1_1z92_sap_22_mot_HHH_b1_05516_af2_000000202_0001_21_38_H_._HHH_b2_07203_0001_0000400022_0000001_0_0001 (protein)
chain: DDEAARYDLERSLKLGIPPRDVVMAVLRALERFLGDPEEALEVIERAIKLLNDPELEEVVEKLKP
B22: il2ra_site1_3nfp_normal_mot_7cda4bd6c75d31e303a515fbb7282898_0001_1_000000177_0001_18_32_H_._9b841c8fe2e6d1e24304b827c5c38554_0001_1_af2_0001_0000300040_0000001 … (protein)
chain: TDEEREEKLLERIKKEGDPELARELLELLEELLGDPVEAFHALSHLLARAGLSVEEVARLLKLAA
B23: il2ra_site2_2erj_sap_20_mot_c2bf78bdce995293a161f7082e24b401_0001_af2_000000000_0001_17_32_H_._HHH_b2_04009_af2_0001_0000600010_0000001_0_0001 (protein)
chain: SSSDEEEEKAKEALKEAEELLERGDPEEAEKVLREAATLVWRLNDFEAWARLAELLRRIAKSSSS
B24: il2ra_site2_3nfp_sap_25_mot_HHH_b2_06150_000000217_0001_39_53_H_._HHH_b2_05014_af2_0001_0000300011_0000001_0_0001 (protein)
chain: DEVSEVIWRLREEGDPELAFLLFAVRADVLYKHDPELEEELEKLIELAERDPEKAKELAEELLRR
B25: il2ra_site1_2b5i_sap_12_mot_HHH_b1_05282_000000062_0001_1_18_H_._HHH_b2_01219_0001_0000300021_0000001_0_0001 (protein)
chain: SSSSDEEVREQVERLIEEAEKALEKGNRLEAMRILDEAARLADENDDEELSKRLQELAREISSSS
B26: il2ra_site1_2b5i_sap_12_mot_HHH_b2_01822_000000237_0001_40_54_H_._HHH_b2_05962_0001_0000300010_0000001_1_0001_af2pred_dldesign_0_af2pred (protein)
chain: SSSSSSPAELAREALELFLEAEKIEDEEERKAKLEKALELAKKGKNNSLVKMLEYALSELSSSSS
B27: il2ra_site2_2erj_normal_mot_HHH_b1_03107_000000098_0001_39_52_H_._HHH_b2_06061_0001_0000100001_0000001_0 (protein)
chain: SSSSSDEKEVWEEVAELLARAAHIKDDEEVRELLEEAERLARELNSPFLERYVEYVRRDHSSSSS
B28: il2ra_site1_2b5i_sap_10_mot_HHH_b1_06743_af2_000000095_0001_1_19_H_._HHH_b2_02247_0001_0000400006_0000001_0_0001 (protein)
chain: SSSSSDEEELDEAFREVSRLWREGNPEEARKLLEEAIELAEELGDEAAQRDLRRFLEMLNSSSSS
B29: il2ra_site1_1z92_sap_21_mot_HHH_b2_07822_af2_000000141_0001_42_54_H_._HHH_b1_05714_af2_0001_0000200004_0000001_0_0001 (protein)
chain: DLEEKIRKVAEELGIPPEDLEAFEYDLEAAERLFGDPEHALKALLMAAEKAGDENIFELAELVLK
B30: il2ra_site1_3nfp_normal_mot_HHH_b1_01335_af2_000000258_0001_39_53_H_._HHH_b2_05319_0001_0000200014_0000001_1_af2pred_0001_af2pred_swapped (protein)
chain: SSSSSSEVEERVEELLEEARHVDLREAEELLREAQRLAREYNNEELLELVFKVMRELAKSSSSSS
B31: il2ra_site1_3nfp_sap_12_mot_HHH_b2_05809_000000010_0001_1_20_H_._HHH_b1_02217_0001_0000300010_0000001_0_0001 (protein)
chain: SSSSSERAEEFWRLIRELIEAQKEGDEEKAEELAELLKELAKERNDEFDEKAVERLLKLLRSSSS
B32: il2ra_site1_1z92_normal_mot_4eadacea29f80ea3a0abedbb5e3c3690_0001_af2_000000154_0001_35_49_H_._HEEHE_0610_af2_0001_0000100007_0000001_0_af2pred_0001_af2pred (protein)
chain: SEEEVIEEDIERVARLAGVPSVEVEVSNNTIEVTVRGDDDRARTLAKIVEKLAKAADLEVHVEIE
B33: il2ra_site2_3nfp_sap_14_mot_HHH_b1_03213_af2_000000225_0001_42_59_H_._HHH_b2_04641_0001_0000200010_0000001_0_0001 (protein)
chain: SSSSKAEEYVRIALELAEEAIEDGDPESARRMLHIALLAAEDNGDEELAEEIERLLEELGSSSSS
B34: il2ra_site2_2erj_sap_27_mot_HHH_b1_00941_000000051_0001_45_58_H_._HHH_b2_05721_0001_0000800023_0000001_0_0001 (protein)
chain: SSSSSEEVEELLEEAEKAAKEGNLAEALRIIHEALRVAEELNDPELLREVNEVAQKLMELSSSSS
B35: il2ra_site1_3nfp_normal_mot_HHH_b1_06396_000000212_0001_1_19_H_._HEEHE_3173_0001_0000500020_0000001_0 (protein)
chain: SADEYLEEALEKDAERLGVPSIEVTIRNGTLHVTIKGNDEAAEEAEQLIEFFARAAKFPVEIRVE
B36: il2ra_site1_3nfp_normal_mot_HHH_b2_03135_af2_000000097_0001_42_55_H_._HEEHE_2706_0001_0000100001_0000001_0 (protein)
chain: NEEEIVERLIKQQAESAGVPHVEVEIHNGTFEVTVEGDDEAARRVLELAEEAAEQLGIPIHVETR
B37: il2ra_site2_3nfp_sap_24_mot_0136b98644bc9a8eb58b95019b738ebb_0001_1_000000071_0001_1_13_H_._HHH_b1_00442_af2_0001_0000600028_0000001_0_0001_af2pred_0001_af2pred … (protein)
chain: SSSSDHEKFALRALLLEIKIAIESGDEERVKKAIELLRKVIEKLNDEEMEEELERLERELSSSSS

These binders were tested against il2ra, P01589 (assay: yeast display titration).

Apparent Kd, inactive:
B1 no binding seen
B2 no binding seen
B3 no binding seen
B4 no binding seen
B5 no binding seen
B6 no binding seen
B7 no binding seen
B8 no binding seen
B9 no binding seen
B10 no binding seen
B11 no binding seen
B12 no binding seen
B13 no binding seen
B14 no binding seen
B15 no binding seen
B16 no binding seen
B17 no binding seen
B18 no binding seen
B19 no binding seen
B20 no binding seen
B21 no binding seen
B22 > 1.44 µM
B23 no binding seen
B24 no binding seen
B25 no binding seen
B26 no binding seen
B27 no binding seen
B28 no binding seen
B29 no binding seen
B30 no binding seen
B31 no binding seen
B32 no binding seen
B33 no binding seen
B34 no binding seen
B35 no binding seen
B36 no binding seen
B37 no binding seen

Retrieved one by one from the list above (two):
Apparent Kd, inactive:
B4 no binding seen
B1 no binding seen
